The record followed here is article doi:10.1101/393272.

The chains behind the UniProt entries cited, without tags or fusion partners. Where a name states a change or a piece, a line headed by the entry shows the natural chain unless it says otherwise.
UniProt P55852: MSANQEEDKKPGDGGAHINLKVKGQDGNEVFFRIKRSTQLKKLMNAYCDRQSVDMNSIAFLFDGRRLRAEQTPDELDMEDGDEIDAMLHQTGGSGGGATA
UniProt O75925: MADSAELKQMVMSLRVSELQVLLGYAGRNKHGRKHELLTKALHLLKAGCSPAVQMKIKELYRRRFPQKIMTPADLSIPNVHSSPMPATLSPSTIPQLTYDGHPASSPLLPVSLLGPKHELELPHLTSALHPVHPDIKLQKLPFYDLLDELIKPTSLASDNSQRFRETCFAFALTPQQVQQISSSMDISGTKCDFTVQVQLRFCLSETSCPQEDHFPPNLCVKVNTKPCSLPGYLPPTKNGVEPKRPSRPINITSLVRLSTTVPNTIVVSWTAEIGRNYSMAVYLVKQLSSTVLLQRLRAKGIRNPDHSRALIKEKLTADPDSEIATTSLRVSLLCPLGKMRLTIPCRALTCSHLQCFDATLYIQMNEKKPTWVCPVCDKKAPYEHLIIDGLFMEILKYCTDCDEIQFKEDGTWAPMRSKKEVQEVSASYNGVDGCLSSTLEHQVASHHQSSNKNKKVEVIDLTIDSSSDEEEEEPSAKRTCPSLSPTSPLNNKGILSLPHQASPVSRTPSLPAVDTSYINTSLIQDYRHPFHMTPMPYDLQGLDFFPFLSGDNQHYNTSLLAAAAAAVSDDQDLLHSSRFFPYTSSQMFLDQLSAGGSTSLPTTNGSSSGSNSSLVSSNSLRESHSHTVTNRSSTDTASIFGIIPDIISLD

Like-named read-outs stand apart in the source and are kept apart here. These are yes or no findings as the source states them, for the method shown. Binding can be weak; no strength is given. For some of these results: Where a sequence is shown, tags or fusion partners need not be part of it. For some of these results: Binding seen in cells or lysates may run through a third protein.

The target in assay [1] is SUMO1^ΔGG+SIM, GAL4 BD fusion (Arabidopsis thaliana) (UniProt P55852). Description: two-hybrid.
The target of assay [2] is SUMO1^ΔGG, GAL4 BD fusion (Arabidopsis thaliana) (UniProt P55852). Description: two-hybrid.
The target in assay [3] is SUMO1^GG, GAL4 BD fusion (Arabidopsis thaliana) (UniProt P55852). Description: two-hybrid.
Assay [4] shares this target. The experiment in a line: two-hybrid. This is another data set of the same source.
Assay [5] has as its target SUMO1^ΔGG, GAL4 BD fusion (Arabidopsis thaliana) (UniProt P55852). Description: two-hybrid. This is another data set of the same source.
For assay [6], the target named is ^CYFP-tagged SUMO1^GG (Arabidopsis thaliana) (UniProt P55852). The experiment in a line: split reporter.
In assay [7] the target is ^CYFP-tagged SUMO1^ΔGG (Arabidopsis thaliana) (UniProt P55852). The experiment in a line: split reporter.
Assay [8] concerns the target SUMO1^K9R+K10R, BiFC fusion (Arabidopsis thaliana) (UniProt P55852). Description: split reporter.
Assay [9] concerns the target SCFP^N-tagged SUMO1^ΔGG+SIM (Arabidopsis thaliana) (UniProt P55852). Description: split reporter.
In assay [10] the target is SCFP^N-tagged SUMO1^ΔGG (Arabidopsis thaliana) (UniProt P55852). Description: split reporter.
For assay [11], the target named is SUMO1^K9R, BiFC fusion (Arabidopsis thaliana) (UniProt P55852). The experiment in a line: split reporter.
In assay [12] the target is SCFP^N-tagged SUMO1^GG+SIM (Arabidopsis thaliana) (UniProt P55852). Description: split reporter.
For assay [13], the target named is SUMO1^K10R, BiFC fusion (Arabidopsis thaliana) (UniProt P55852). The experiment in a line: split reporter.
Assay [14] addresses SCFP^N-tagged SUMO1^GG (Arabidopsis thaliana) (UniProt P55852). The experiment in a line: split reporter.
The target of assay [15] is SCFP^C-SUMO1^GG (Arabidopsis thaliana) (UniProt P55852). The experiment in a line: split reporter.
Assay [16] shares this target. The experiment in a line: split reporter. The source holds these as a separate data set.
For assay [17], the target named is SUMO1^ΔGG+SIM, GAL4 BD fusion (Arabidopsis thaliana) (UniProt P55852). Description: two-hybrid. The source holds these as a separate data set.
Assay [18] addresses COP1^SUMO (K193R), GAL4 BD fusion (Arabidopsis thaliana). The experiment in a line: two-hybrid.

Turning to “PIAS1, GAL4 AD fusion (from UniProt O75925 1-651)”, the binding entry in assay [1] and in assay [2] was “binds” each time.

B1: SCE1 (SUMO E2 CONJUGATING ENZYME), GAL4 AD fusion (enzyme, UniProt Q42551 1-160)
chain: MASGIARGRLAEERKSWRKNHPHGFVAKPETGQDGTVNLMVWHCTIPGKAGTDWEGGFFPLTMHFSEDYPSKPPKCKFPQGFFHPNVYPSGTVCLSILNEDYGWRPAITVKQILVGIQDLLDTPNPADPAQTDGYHLFCQDPVEYKKRVKLQSKQYPALV
Consider B1, for which the binding entry is on record as “binds weakly” in assay [3], “binds” in assay [4] and “binds” in assay [5].

B2: ^NYFP-tagged SCE1 (enzyme, UniProt Q42551 1-160)
chain: B1 chain
For B2, the binding entry in assay [6] and in [7] was “binds” throughout.

B3: SCFP^C-tagged SCE1 (enzyme, UniProt Q42551 1-160)
chain: B1 chain
As to B3, the binding result in assay [8], in assay [9], in [10], in [11], in assay [12] and in [13] was “binds” each time. Besides, the binding entry in assay [14] was “binds”.

B4: SCFP^N-SCE1 (enzyme, UniProt Q42551 1-160)
chain: B1 chain
On to B4, for which the binding entry in assay [15] and in [16] was “binds” throughout.

B5: SIZ1 (SUMO E3 ligase), GAL4 AD fusion (enzyme, UniProt Q680Q4 1-884)
chain: MDLEANCKEKLSYFRIKELKDVLTQLGLSKQGKKQELVDRILTLLSDEQAARLLSKKNTVAKEAVAKLVDDTYRKMQVSGASDLASKGQVSSDTSNLKVKGEPEDPFQPEIKVRCVCGNSLETDSMIQCEDPRCHVWQHVGCVILPDKPMDGNPPLPESFYCEICRLTRADPFWVTVAHPLSPVRLTATTIPNDGASTMQSVERTFQITRADKDLLAKPEYDVQAWCMLLNDKVLFRMQWPQYADLQVNGVPVRAINRPGGQLLGVNGRDDGPIITSCIRDGVNRISLSGGDVRIFCFGVRLVKRRTLQQVLNLIPEEGKGETFEDALARVRRCIGGGGGDDNADSDSDIEVVADFFGVNLRCPMSGSRIKVAGRFLPCVHMGCFDLDVFVELNQRSRKWQCPICLKNYSVEHVIVDPYFNRITSKMKHCDEEVTEIEVKPDGSWRVKFKRESERRELGELSQWHAPDGSLCPSAVDIKRKMEMLPVKQEGYSDGPAPLKLGIRKNRNGIWEVSKPNTNGLSSSNRQEKVGYQEKNIIPMSSSATGSGRDGDDASVNQDAIGTFDFVANGMELDSISMNVDSGYNFPDRNQSGEGGNNEVIVLSDSDDENDLVITPGPAYSGCQTDGGLTFPLNPPGIINSYNEDPHSIAGGSSGLGLFNDDDEFDTPLWSFPSETPEAPGFQLFRSDADVSGGLVGLHHHSPLNCSPEINGGYTMAPETSMASVPVVPGSTGRSEANDGLVDNPLAFGRDDPSLQIFLPTKPDASAQSGFKNQADMSNGLRSEDWISLRLGDSASGNHGDPATTNGINSSHQMSTREGSMDTTTETASLLLGMNDSRQDKAKKQRSDNPFSFPRQKRSNNEQDHQTRHRSLNKICIILCAGKN
For the molecule B5, the binding result in assay [4], in [17], in assay [18] and in [5] was “binds” throughout.

B6: SIZ1 fused to Venus^N (enzyme, UniProt Q680Q4 1-884)
chain: B5 chain
On to B6, for which, in assay [15], the binding result is “binds”.

B7: SCFP^C-tagged SIZ1 (enzyme, UniProt Q680Q4 1-884)
chain: B5 chain
With B7, the binding entry in assay [9], in assay [10], in assay [12] and in assay [14] was “binds” in each case.
